Measurements published in the supplement of paper PMC5407854, “Inhibitor of ppGalNAc-T3-mediated O-glycosylation blocks cancer cell invasiveness and lowers FGF23 levels” (eLife, 2017).
Some of the results follow. Small differences around the control level are noise.

System: ppGalNAc-T2 sensor
Assay: T2 sensor activation Q score (MG/GFP ratio z-score vs DMSO controls) (SD units); higher = more sensor activation (inhibition of ppGalNAc-T2 glycosylation)
Settings: HEK293 sensor cells; 10 µM; 6 h
Experimental: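 Cells were treated with compound at 10 uM for 6 h, then MG/GFP ratio was read by flow cytometry (10,000 cells per well, duplicate wells). Q = (R - R_neg)/SD_neg relative to DMSO vehicle controls; the signal rises when the glycosyltransferase is inhibited.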

Row | SMILES | T2 sensor activation Q score
1 | COc1ccc(N2C(=O)CC(N3CCOCC3)C2=O)cc1 (stereo unspecified) | -0.645
2 | CC(=O)C1=C(O)C(=O)N(c2ccccn2)C1c1ccccc1 (stereo unspecified) | 0.27
3 | O=C(Nc1ccccc1)Nc1cccc(Cl)c1 | -0.905
4 | COc1ccc2c(Cl)c(C(=O)N3CCOCC3)sc2c1 | 0.98
5 | COc1ccccc1NC(=O)CC1Sc2ccccc2NC1=O (stereo unspecified) | -0.24
6 | CCN1CCN(CC(O)COCC2COc3ccccc3O2)CC1 (stereo unspecified) | -0.545
7 | CCCNS(=O)(=O)c1ccc([N+](=O)[O-])cc1 | 0.295
8 | CN1CCN(S(=O)(=O)c2cc(Cl)c(Cl)cc2Cl)CC1 | 0.385
9 | NC12CC3CC(C1)CC(C(=O)O)(C3)C2 | 0.23
10 | CCCSc1nnc2c(n1)[nH]c1ccccc12 | -0.425
11 | COc1ccc(CN2CCN(c3ccc(Cl)cc3)CC2)c(OC)c1OC | 0.275
12 | CC(=O)c1ccc(N2CCN(CC(c3ccccc3)c3ccccc3)CC2)cc1 | 0.265
13 | CCN(CC)S(=O)(=O)c1ccc(Br)c(C(=O)O)c1 | 0.62
14 | O=C(CC(Nc1ccccc1)c1ccccc1)c1ccccc1 (stereo unspecified) | -0.16
15 | CN(C)CCN(C)Cc1ccc(Cl)cc1 | 1.42
16 | O=C(Nc1nn[nH]n1)C1c2ccccc2Oc2ccccc21 | 1.14

Arranged by length of the SMILES (largest number first): some entries from above.
Row | SMILES | T2 sensor activation Q score
11 | COc1ccc(CN2CCN(c3ccc(Cl)cc3)CC2)c(OC)c1OC | 0.275
16 | O=C(Nc1nn[nH]n1)C1c2ccccc2Oc2ccccc21 | 1.14
15 | CN(C)CCN(C)Cc1ccc(Cl)cc1 | 1.42
